Experimental data: paper PMC8782181

Sequences of proteins named here, by UniProt entry; tags and fusion partners are left off.
UniProt P53297: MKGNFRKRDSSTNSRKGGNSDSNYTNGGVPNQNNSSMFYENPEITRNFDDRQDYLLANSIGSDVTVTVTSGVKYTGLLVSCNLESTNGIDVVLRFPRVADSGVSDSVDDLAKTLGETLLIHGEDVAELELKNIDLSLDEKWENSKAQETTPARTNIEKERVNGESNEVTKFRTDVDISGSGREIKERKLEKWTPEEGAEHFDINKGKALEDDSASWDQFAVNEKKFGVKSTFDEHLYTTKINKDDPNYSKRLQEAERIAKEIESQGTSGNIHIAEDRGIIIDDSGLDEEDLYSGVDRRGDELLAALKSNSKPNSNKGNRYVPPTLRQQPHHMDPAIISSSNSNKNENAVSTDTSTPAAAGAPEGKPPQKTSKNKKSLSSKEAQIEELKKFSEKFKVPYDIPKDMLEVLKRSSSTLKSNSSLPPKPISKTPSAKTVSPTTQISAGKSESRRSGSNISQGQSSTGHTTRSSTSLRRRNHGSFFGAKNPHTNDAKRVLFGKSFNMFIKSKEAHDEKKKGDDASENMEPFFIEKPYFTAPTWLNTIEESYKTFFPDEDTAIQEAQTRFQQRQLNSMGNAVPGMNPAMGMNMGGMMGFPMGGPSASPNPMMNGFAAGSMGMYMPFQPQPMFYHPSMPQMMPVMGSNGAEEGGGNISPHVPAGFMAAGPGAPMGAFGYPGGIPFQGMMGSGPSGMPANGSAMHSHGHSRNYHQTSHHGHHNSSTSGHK

T1: Dcp1-myc (S. cerevisiae) (UniProt Q12517)
T1 sequence: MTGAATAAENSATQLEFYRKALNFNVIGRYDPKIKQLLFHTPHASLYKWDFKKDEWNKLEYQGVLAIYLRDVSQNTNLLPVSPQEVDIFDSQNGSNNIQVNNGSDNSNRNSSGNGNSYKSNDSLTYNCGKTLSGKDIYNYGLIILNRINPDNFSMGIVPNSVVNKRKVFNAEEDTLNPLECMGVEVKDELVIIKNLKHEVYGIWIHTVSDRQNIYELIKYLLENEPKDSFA


Key:
Dcp1-myc (S. cerevisiae) = target: T1, Dcp1-myc (S. cerevisiae); test: affinity purification with mass spectrometry; cells unstressed or glucose-depleted (10 min for Dcp1-myc, 60 min for Pbp1-myc), cross-linked with 0.8% formaldehyde; 20,000 g pellet of the lysate in Blob100 buffer (20 mM Tris-HCl pH 8, 100 mM NaCl, 1 mM MgCl2, 0.5% NP40) on anti-c-Myc magnetic beads, eluted with Myc peptide; label-free LC-MS/MS; hits are the proteins that cluster (Mfuzz) with the tagged bait across IP, pellet, supernatant, total and unbound fractions
Pbp1-myc (S. cerevisiae) = Pbp1-myc (S. cerevisiae) (UniProt P53297); test: as above

Binder	binding (Dcp1-myc (S. cerevisiae))	binding (Pbp1-myc (S. cerevisiae))
Meu1 (protein, UniProt Q07938 1-337) MNRIKNTFSVAKRLKLSKVMTNSELPSIFEGTVDLGIIGGTGLYNLDCLEPIALLPPMVTPWGTTSSPVTISQFVGTNSHFHVAFIARHGINHEYPPTKVPFRANMAALKNLNCKAVLSFSAVGSLQPHIKPRDFVLPQQIIDRTKGIRHSSYFNDEGLVGHVGFGQPFSQKFAEYIYQFKNEITNPESEEPCHLHYDKDMTVVCMEGPQFSTRAESKMYRMFGGHVINMSVIPEAKLARECELPYQMICMSTDYDAWRDEAEPVTVETVIGNLTNNGRNANILASKIIVSMAKEIPEFMHTGDGLRGSIKKSISTKPEAMSKETLERLRYLFPNYW	binds	binds
Nrp1 (protein, UniProt P32770 1-719) MHYVVLELQVAHLPDTPKDQCRIANIAFQIVNAETLVCHYGTNSLPSIEVNGTTKSLESAMVQLDKDIHDVIGNDDFVLVSLYSTWHIRVTLPRQARDDGFILTSYLQHPKVFDLWKEFDRWCVNHPEILGQKKAISNNNCNTKSISINAAKNTKDLDEIVRILEVSIPTEEAGSVPEIYSLLKRTTDILIQLHKKCTSPEDMESVLTKPYDSHTDIRAFLQEKSKILYMNNLPPDTTQSELESWFTQYGVRPVGFWTVKNIVEDTSNVNNNWSLNNSPYVEDQDSISGFVVFQTHEEATEVLALNGRSILSNLANTKQPRVVEHVLELQPSSTGVLDKAQEILSPFPQSKNKPRPGDWNCPSCGFSNFQRRTACFRCSFPAPSNSQIHTANSNNNVNSSRNNLNNRVNSGSSSNISNTAANHPYGAPEFNMIANNTPAALTYNRAHFPAITPLSRQNSLNMAPSNSGSPIIIADHFSGNNNIAPNYRYNNNINNNNNNINNMTNNRYNINNNINGNGNGNGNNSNNNNNHNNNHNNNHHNGSINSNSNTNNNNNNNNGNNSNNCNSNIGMGGCGSNMPFRAGDWKCSTCTYHNFAKNVVCLRCGGPKSISGDASETNHYIDSSTFGPASRTPSNNNISVNTNGGSNAGRTDGNDNKGRDISLMEFMSPPLSMATKSMKEGDGNGSSFNEFKSDKANVNFSNVGDNSAFGNGFNSSIRW	binds	binds
Def1 (protein, UniProt P35732 1-738) MSTQFRKSNHNSHSSKKLNPALKSKIDTLTELFPDWTSDDLIDIVQEYDDLETIIDKITSGAVTRWDEVKKPAKKEKYEKKEQQHSYVPQQHLPNPEDDITYKSSNNSNSFTSTKHNSSNNYTQARNKKKVQTPRAHTTGKHVNLDKGKHVPSKPVSNTTSWAAAVSVDTKHDVPQDSNDNNNEELEAQGQQAQEKNQEKEQEEQQQQEGHNNKEEHKQIEQPSLSSKKTTSRTSASQPKKMSWAAIATPKPKAVKKTESPLENVAELKKEISDIKKDDQKSEASEEKVNEQETSAQEQEEETAEPSEENEDRVPEVDGEEVQEEAEKKEQVKEEEQTAEELEQEQDNVAAPEEEVTVVEEKVEISAVISEPPEDQANTVPQPQQQSQQPQQPQQPQQPQQPQQPQQQQQPQQPQQPQQQLQQQQQQQQQPVQAQAQAQEEQLSQNYYTQQQQQQYAQQQHQLQQQYLSQQQQYAQQQQQHPQPQSQQPQSQQSPQSQKQGNNVAAQQYYMYQNQFPGYSYPGMFDSQGYAYGQQYQQLAQNNAQTSGNANQYNFQQGYGQAGANTAAANLTSAAAAAAASPATAHAQPQQQQPYGGSFMPYYAHFYQQSFPYGQPQYGVAGQYPYQLPKNNYNYYQTQNGQEQQSPNQGVAQHSEDSQQKQSQQQQQQQPQGQPQPEVQMQNGQPVNPQQQMQFQQYYQFQQQQQQAAAAAAAAAQQGVPYGYNGYDYNSKNSRGFY	binds	binds
Lcp5 (protein, UniProt P40079 1-357) MSELNALLKDINGSLTATSESLERLSGIYSNSATDEIPESNQLHEHLFYDAKKPAEKVSLLSLKNGSMLGYINSLLMLIGNRLDDECKDPSAMDARERSIQHRVVLERGVKPLEKKLAYQLDKLTRAYVKMEKEYKDAEKRALEKSTLVNHSGNDDSEDDESSEDEIAYRPNTSGIINTNKKSSAYRVEETAKQENGEENDDNETGVYKPPKITAVLPPQQTHFEDRFDAREHKDRSNKSRMQAMEEYIRESSDQPDWSASIGADIVNHGRGGIKSLRDTEKERRVTSFEEDNFTRLNITNKAEKRKQKQRERNARMNVIGGEDFGIFSSKRKLEDSTSRRGAKKTRSAWDRAQRRL	binds	binds
Pop2 (protein, UniProt P39008 1-433) MQSMNVQPRVLAVGGEQFFSQRQASEQHQQQNMGPQVYSPKVNRARMFPQGMPVNTINGSVNQEMNNAYLLKQKNEPLLTQQQQQQQQQQQPFNIGTPVSVASLPPGLNVLQQQQQQQQQQQQQQQGVGLNRPLASQLPKHLTNQSMPPIFLPPPNYLFVRDVWKSNLYSEFAVIRQLVSQYNHVSISTEFVGTLARPIGTFRSKVDYHYQTMRANVDFLNPIQLGLSLSDANGNKPDNGPSTWQFNFEFDPKKEIMSTESLELLRKSGINFEKHENLGIDVFEFSQLLMDSGLMMDDSVTWITYHAAYDLGFLINILMNDSMPNNKEDFEWWVHQYMPNFYDLNLVYKIIQEFKNPQLQQSSQQQQQQQYSLTTLADELGLPRFSIFTTTGGQSLLMLLSFCQLSKLSMHKFPNGTDFAKYQGVIYGIDGDQ	binds	binds

Results, then the binder that gave them:

binding (Dcp1-myc (S. cerevisiae))	binding (Pbp1-myc (S. cerevisiae))	Binder
binds	binds	Rnq1 (protein, UniProt P25367 1-405) MDTDKLISEAESHFSQGNHAEAVAKLTSAAQSNPNDEQMSTIESLIQKIAGYVMDNRSGGSDASQDRAAGGGSSFMNTLMADSKGSSQTQLGKLALLATVMTHSSNKGSSNRGFDVGTVMSMLSGSGGGSQSMGASGLAALASQFFKSGNNSQGQGQGQGQGQGQGQGQGQGSFTALASLASSFMNSNNNNQQGQNQSSGGSSFGALASMASSFMHSNNNQNSNNSQQGYNQSYQNGNQNSQGYNNQQYQGGNGGYQQQQGQSGGAFSSLASMAQSYLGGGQTQSNQQQYNQQGQNNQQQYQQQGQNYQHQQQGQQQQQGHSSSFSALASMASSYLGNNSNSNSSYGGQQQANEYGRPQQNGQQQSNEYGRPQYGGNQNSNGQHESFNFSGNFSQQNNNGNQNRY
binds	binds	eIF2A (protein, UniProt P53235 1-642) MSSQFFLKTSQDIELFQSYPTFEQSNTNSKDFPVISSVLSPCGRFLALSTKENVKVFTGPCLDNVLLTMKLSDVYDLHFSPAGNYLSTWERASIQDPNHKNVKVWYLNKPFKKDCVSEDIVPAYEYQAKSQSGWFLQFSKLDNYGLRLFKHDLKIVKLSSANADNFDFQSPFAVLSDDETSQHFTTYLISPAEHPTICTFTPEKGGKPAQLIIWALSEGKITKKIASKTFFKADSCQLKWNPLGNAILCLAITDFDSSNKSYYGENTLYLLSFQGVNGTLGGNSVRVSLTTGPVHDFTWSPTSRQFGVIAGYMPATISFFDLRGNVVHSLPQQAKNTMLFSPSGHYILIAGFGNLQGSVEILDRLDKFKCVSKFDATNTSVCKWSPGGEFIMTATTSPRLRVDNGVKIWHVSGSLVFVKEFKELLKVDWRSPCNYKTLENKDEAFFENHIINNWEPLPDSTTSSLDPKISNKSELQIHSSVQEYISQHPSREASSNGNGSKAKAGGAYKPPHARRTGGGRIVPGVPPGAAKKTIPGLVPGMSANKDANTKNRRRRANKKSSETSPDSTPAPSAPASTNAPTNNKETSPEEKKIRSLLKKLRAIETLKERQAVGDKLEDTQVLKIQTEEKVLKDLEKLGWKDE
binds	binds	Sbp1 (protein, UniProt P10080 1-294) MSAEIEEATNAVNNLSINDSEQQPRAPTHKTVIDPEDTIFIGNVAHECTEDDLKQLFVEEFGDEVSVEIPIKEHTDGHIPASKHALVKFPTKIDFDNIKENYDTKVVKDREIHIKRARTPGQMQRGGFRGRGGFRGRGGFRGGFRGGYRGGFRGRGNFRGRGGARGGFNGQKREKIPLDQMERSKDTLYINNVPFKATKEEVAEFFGTDADSISLPMRKMRDQHTGRIFTSDSANRGMAFVTFSGENVDIEAKAEEFKGKVFGDRELTVDVAVIRPENDEEEIEQETGSEEKQE
binds	binds	Rrp3 (protein, UniProt P38712 1-501) MSKIVKRKEKKANDELTSLAEKIRAKALENQKKLIEAEKEGGSESDSEEDATAEKKKVLKSKSKSTVSTQNENTNEDESFESFSELNLVPELIQACKNLNYSKPTPIQSKAIPPALEGHDIIGLAQTGSGKTAAFAIPILNRLWHDQEPYYACILAPTRELAQQIKETFDSLGSLMGVRSTCIVGGMNMMDQARDLMRKPHIIIATPGRLMDHLENTKGFSLRKLKFLVMDEADRLLDMEFGPVLDRILKIIPTQERTTYLFSATMTSKIDKLQRASLTNPVKCAVSNKYQTVDTLVQTLMVVPGGLKNTYLIYLLNEFIGKTMIIFTRTKANAERLSGLCNLLEFSATALHGDLNQNQRMGSLDLFKAGKRSILVATDVAARGLDIPSVDIVVNYDIPVDSKSYIHRVGRTARAGRSGKSISLVSQYDLELILRIEEVLGKKLPKESVDKNIILTLRDSVDKANGEVVMEMNRRNKEKIARGKGRRGRMMTRENMDMGER

These are yes or no findings as the source states them, for the method shown. Binding seen in cells or lysates may run through a third protein. These calls come from enrichment with a bait or labelling near it, and not all partners need be listed. For part of these data: Where a sequence is shown, tags or fusion partners need not be part of it.
